# Source: PubChem BioAssay AID1347076 (National Center for Advancing Translational Sciences (NCATS), 2019)
# The campaign covered roughly 400,000 compounds. About 13,000 (3.2%) were called active. Inconclusive results, whose numbers are uncertain, are shown with a selection of clear calls. The call rests on the fitted dose curve; in most records, active means well fitted cell-killing curve with a large enough effect; inconclusive means small, poorly fitted or top-dose-only effect, or effect the other way; inactive means flat fitted curve, though single readings scatter. Where the call is inconclusive, the potency comes from a doubtful curve fit.
# Assay: qHTS assay for MDR1-selective chemotherapeutics: Primary screen using the drug-selected MDR subline cells KB-V1; further: nearly all actives have a fitted effect of over 60% in size
# Settings: KB-V1 MDR cells viability, CellTiter-Glo, 72 h; activity change, negative = cytotoxicity: at 46.1 µM (top of the series)
# How it was run: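 Following 72 h at 37 degrees C with compound, KB-V1 cell viability was read by CellTiter-Glo luminescence, medium being phenol-red-free DMEM plus 10% FBS; concentration-response parameters came from normalized, curve-fitted qHTS data.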
# On the % scale 0 is the no-effect control and ±100 the full control effect; potency means the concentration at half of the fitted maximal effect.
Compound,Potency,"activity change, negative = cytotoxicity"
O=C(C1CCCCC1)N(CCN1CCCC1)c1nc2ccccc2s1,"inconclusive: 18.4 µM [cytotoxic, single point]",–
C/C(=N\NC(=O)c1ccc(NS(=O)(=O)c2cccs2)cc1)c1ccccc1,–,inactive: -5%
O=C(Nc1ccc2sccc2c1)c1ccc(Cl)s1,–,inactive: -6.44%
CCC(C(=O)NC1CCCC1)N(C(=O)Cn1nnc(-c2ccc(C)o2)n1)c1ccccc1OC (stereo unspecified),–,inactive: -26.6%
CCN1CCN(S(=O)(=O)c2ccc(Cl)c(C(=O)Nc3ccccc3N3CCCC3)c2)CC1,–,inactive: -5.9%
O=C(CCC1N=C2c3ccccc3N=C(SCc3ccccc3Cl)N2C1=O)NCc1cccs1 (stereo unspecified),–,inactive: 2.67%
COc1cc(/C=C\C(=O)Nc2cc(=O)n(C)c(=O)n2C)cc(OC)c1OC,"inconclusive: 23.1 µM [cytotoxic, partial curve, poor fit]",–
CCc1ccc(NC(=O)N(C2CCCCC2)C(C)c2cccnc2)cc1 (stereo unspecified),active: 20.6 µM,–
C=CCn1c(NC(=O)c2ccccc2Cl)c(C#N)c2nc3ccccc3nc21,active: 8.2 µM,–
CCN(CC)S(=O)(=O)c1cc(NC(=O)CSc2nc3c(cc2C#N)C(=O)CC(C)(C)C3)ccc1C,"inconclusive: 29.1 µM [cytotoxic, single point]",–
CN(c1ccccc1)S(=O)(=O)c1cccc(C(=O)NC2CCCCC2)c1,active: 14.6 µM,–
O=C(Nc1ccc(F)cc1)C(Sc1nc2ccccc2[nH]1)c1ccccc1 (stereo unspecified),"inconclusive: 25.9 µM [cytotoxic, single point]",–
CN1C2C=C3C(C#N)=C(N)C(C#N)(C#N)C(c4ccc(Br)cc4)C3C1CC2 (stereo unspecified),"inconclusive: 8.2 µM [cytotoxic, partial curve, poor fit]",–
Cc1cccc(-c2nnc(SCc3nc4ccccc4[nH]3)n2Cc2ccco2)c1,"inconclusive: 9.2 µM [cytotoxic, partial curve]",–
Cc1ccc(S(=O)(=O)NCC2CCC(C(=O)NCc3ccc4c(c3)OCO4)CC2)cc1 (stereo unspecified),"inconclusive: 7.31 µM [cytotoxic, partial curve]",–
CCOc1cccc(N(C(=O)C2COc3ccccc3O2)C(C(=O)NC2CCCCC2)c2ccc(O)cc2)c1 (stereo unspecified),–,inactive: 5.55%
CCOC(=O)c1c(NC(=O)CSc2nc3ccccc3[nH]2)sc2c1CC(C)(C)NC2(C)C,–,inactive: -21.8%
Cc1ccc(C(=S)N2CCCCCC2)cc1,–,inactive: -23.8%
CCOC(=O)CN(C)C(=O)CCc1nnc(-c2ccc(-c3ccccc3)cc2)o1,"inconclusive: 29.1 µM [rising, single point]",–
CC(C)Cc1ccc(S(=O)(=O)Nc2ccc3[nH]c(=O)[nH]c3c2)cc1,–,inconclusive: -30.1% [cytotoxic]
Cc1[nH]n(-c2ccccc2)c(=O)c1CCOC(=O)c1cccc(C(F)(F)F)c1,–,inactive: -17.6%
COc1cc(C(O)c2nc3ccccc3s2)cc(OC)c1OC (stereo unspecified),"inconclusive: 20.6 µM [cytotoxic, partial curve, poor fit]",–
O=C(CSCc1ccc(Cl)cc1)N/N=C/c1c(Cl)cccc1Cl,"inconclusive: 20.6 µM [cytotoxic, single point]",–

# Quoted from the listing:
# In activity change, negative = cytotoxicity, O=C(CCC1N=C2c3ccccc3N=C(SCc3ccccc3Cl)N2C1=O)NCc1cccs1 (stereo unspecified) is entered as inactive: 2.67%
# In activity change, negative = cytotoxicity, C/C(=N\NC(=O)c1ccc(NS(=O)(=O)c2cccs2)cc1)c1ccccc1 is entered as inactive: -5%

# (next part)

Compound,Potency,"activity change, negative = cytotoxicity"
CCOc1cc(/C=C/C(=O)O)ccc1OCCO,–,inactive: 12.3%
O=C(CNC(=O)CNC(=O)c1ccc(Cl)cc1Cl)NCc1cccc(Cl)c1,–,inactive: 18.8%
O=C(CSc1nc(-c2ccc(F)cc2)cs1)NCC1CCCO1 (stereo unspecified),"inconclusive: 16.4 µM [cytotoxic, partial curve, poor fit]",–
Cc1cc(NC(=O)CSc2nc(-c3cccs3)cc(C(F)(F)F)n2)no1,active: 1.03 µM,–
CC(C)Oc1ccc(/C=C(\C#N)C(=O)NC2CC2)cc1,"inconclusive: 5.17 µM [rising, partial curve, poor fit]",–
O=C(NCc1cccc(Cl)c1)c1ccc(CS(=O)Cc2ccccc2Cl)o1 (stereo unspecified),"inconclusive: 1.84 µM [rising, full curve]",–
Cc1cc(C)c2c(N)c(C(=O)Nc3ccccc3Br)sc2n1,–,inactive: 2.7%
c1ccc(-c2ccc(SCc3cccnc3)nn2)nc1,"inconclusive: 18.4 µM [cytotoxic, single point]",–
CN1CCN(C2CN(Cc3cn(Cc4ccccc4F)nn3)S(=O)(=O)C2)CC1 (stereo unspecified),–,inactive: 8.94%
CCOC(=O)N1CCN(C(=O)c2cn(C)c3ccc(S(=O)(=O)N(CC)CC)cc3c2=O)CC1,"inconclusive: 3.66 µM [rising, full curve, poor fit]",–
O=C(CSc1n[nH]c(-c2ccccn2)n1)Nc1ccccc1F,"inconclusive: 4.61 µM [cytotoxic, full curve, poor fit]",–
CCCCN(CC)C(=O)CSc1nc2c(sc(=S)n2-c2ccc(OCC)cc2)c(=O)[nH]1,"inconclusive: 16.4 µM [rising, single point]",–
O=C(O)C1CCC(c2ccc(-c3ccccc3)cc2)CC1 (stereo unspecified),"inconclusive: 20.6 µM [rising, single point]",–
Oc1c(C(c2cccs2)N2CCN(c3cccc(Cl)c3)CC2)sc2ncnn12 (stereo unspecified),–,inactive: -3.75%
COc1ccc(CCN(C)C(=O)CNC(=O)c2ccc3c(c2)OCO3)cc1OC,"inconclusive: 10.3 µM [cytotoxic, partial curve]",–
CC1CCN(c2ccc(-c3cccc(NS(=O)(=O)c4ccc(Cl)s4)c3)nn2)CC1,–,inactive: 19.8%
CC(C)(C)NC(=O)Cn1cc(S(=O)(=O)Cc2ccc(F)cc2)c2ccccc21,–,inactive: -0.714%
O=C(Nc1ccc(NC(=S)NC(=O)c2ccco2)cc1)c1ccccc1,"inconclusive: 29.1 µM [rising, single point]",–
CS(=O)(=O)c1cccc(NC(=O)c2ccc(Cl)c(Cl)c2)c1,"inconclusive: 20.6 µM [cytotoxic, single point]",–
CN(C)c1nc(OCCNC(=O)Nc2ccccc2)nc(N2CCCCC2)n1,"inconclusive: 3.66 µM [cytotoxic, full curve]",–
CCOC(=O)CNC(c1ccccc1)c1cc(Br)ccc1NC(=O)c1ccc(Cl)cc1 (stereo unspecified),"inconclusive: 4.61 µM [cytotoxic, partial curve, poor fit]",–
COc1ccc(Cl)cc1NC(=O)COC(=O)c1ccc(Cl)nc1,"inconclusive: 14.6 µM [rising, single point]",–
O=C(CCCSc1nc2ccccc2[nH]1)NCc1ccccc1Cl,active: 16.4 µM,–
